# Results from patent US5055448A (Medical College of Ohio, priority 1987, dated 1991).
# What was measured:
# [1] = general procedure: Boc solid-phase peptide synthesis; Chloromethylated resin (Bio-Rad Bio-Beads SX-1); p-nitrophenyl esters; dicyclohexyl carbodiimide/N-hydroxybenzotriazole in soluti; conditions: for isolated yield / crude mass / crude yield / isolated mass: whole synthesis
# peptide synthesis = conditions: for cyclisation yield: cyclisation step
substance,measurement,setting,value
Aaa-D-Tyr(Et)-Phe-Val-Asn-Abu-Pro-Arg(Tos)-NHCH2 CH2 NH2,isolated yield,[1],69.7%
same,crude mass,[1]; scale about 0.3 mmol,290 mg
Aaa-D-Tyr(Et)-Phe-Val-Asn-Abu-Pro-Arg(Tos)NH2,crude yield,[1],59.3%
same,crude mass,[1]; scale about 0.3 mmol,220 mg
Aaa-D-Tyr(Et)-Phe-Val-Asn-Orn(Tos)-Pro-Arg(Tos)NH2,crude mass,[1]; scale 0.3 mmol,248 mg
same,crude yield,[1]; scale 0.3 mmol,58.2%
PEPTIDE1{[Aaa].[D-Tyr(Et)].F.V.N.[Abu].P.R.A.[am]}$$$$V2.0,step yield,[1]; late stage modification step,82%
PEPTIDE1{[Aaa].[D-Tyr(Et)].F.V.N.[Abu].P.R.[Eda]}$$$$V2.0,step yield,[1]; late stage modification step,53.5%
PEPTIDE1{[Aaa].[D-Tyr(Et)].F.V.N.[Abu].P.R.[am]}$$$$V2.0,step yield,[1]; late stage modification step,36%
PEPTIDE1{[Pa].[D-Tyr(Et)].F.V.N.[Abu].P.R.R.[am]}$$$$V2.0,step yield,[1]; late stage modification step,73.9%
Pa-D-Tyr(Et)-Phe-Val-Asn-Abu-Pro-Arg(Tos)-Arg-(Tos)NH2,crude yield,[1],55.6%
"beta-(S-Benzylmercapto)-beta,beta-cyclopentamethylenepropionyl-Tyr(Bzl)-Phe-Gln-Asn-Cys(Bzl)-Pro-Arg(Tos)-GlyNH2",isolated yield,"[1]; based on initial Gly content on the resin, scale 0.5 mmol",62.4%
same,crude mass,[1]; scale 0.5 mmol,723 mg
same,isolated mass,[1]; scale 0.5 mmol,488 mg
"beta-(S-Benzylmercapto)-beta,beta-cyclopentamethylenepropionyl-Tyr(Me)-Phe- Gln-Asn-Cys(Bzl)-Pro-Arg(Tos)-GlyNH2",step yield,[1]; coupling step,77.3%
same,isolated yield,"[1]; based upon initial glycine content of the resin, scale 0.4 mmol",50.7%
same,crude mass,[1]; scale 0.4 mmol,410 mg
same,isolated mass,[1]; scale 0.4 mmol,302 mg
"d(CH2)5 [D-Tyr(Et)^2, Val^4, GlyNHMe^9 ]AVP",cyclisation yield,peptide synthesis,38.7%
same,isolated yield,peptide synthesis; whole synthesis,69.3%
"d(CH2)5 [Tyr(Me)^2, GlyNHBu-n^9 ]AVP",cyclisation yield,peptide synthesis,48.3%

# For part of these data: HELM strings list residues between dots; [ac] is acetyl, [am] amide, other brackets name non-standard units.
